PubChem BioAssay AID1508597, Cure First – 2020

Test: 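Survival screen with siRNA in ovarian cancer cells derived from patients, with or without rucaparib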 (primary screen)
Cell system: human ovarian carcinoma lines grown from tumours: OCI-P5x (papillary serous) and OCI-C5x (clear cell)
Knock-down reagent: siRNA pool against human genes, 1.25 pmol siRNA per well
Timing: 72 h or 96 h, depending on the cell culture
Challenge: rucaparib 20 µM (about IC30) or vehicle, present until read-out
Rucaparib or vehicle: Vehicle
Cell line: OCI-C5x (clear cell)
Read-out: 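Luminescent ATP-based viability assay read 72 or 96 h after transfection, depending on culture, given as normalised percent viability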
Reading the numbers: viability, normalised: higher = more viable cells remaining
Hit rule: 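Active when normalised viability falls below 80 percent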
Calls: active = viability under 80%; inactive = viability 80% or more
This is a random part of the about 2,100 reagents, under one of the conditions tested. 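Calls flag viability under 80% in either arm, not effects specific to rucaparib; the reference for percent is not stated.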 Some reagents were tested in more than one well and are listed for each. Reagent sequences are not shown. The record does not give: the 100% reference.

| target gene | technical replicate | viability, normalised (%) | activity call |
| --- | --- | --- | --- |
| KMT2E (GeneID 55904) | 1 | 56.4 | active |
| KMT2E (GeneID 55904) | 2 | 65.8 | active |
| KMT2E (GeneID 55904) | 3 | 68.5 | active |
| GRK3 (GeneID 157) | 1 | 85 | inactive |
| GRK3 (GeneID 157) | 1 | 53.9 | active |
| GRK3 (GeneID 157) | 2 | 53.6 | active |
| GRK3 (GeneID 157) | 3 | 63.7 | active |
| GRK3 (GeneID 157) | 3 | 42.6 | active |
| MED10 (GeneID 84246) | 1 | 58.2 | active |
| MED10 (GeneID 84246) | 2 | 57.8 | active |
| MED10 (GeneID 84246) | 3 | 62.5 | active |
| TIE1 (GeneID 7075) | 1 | 60.8 | active |
| TIE1 (GeneID 7075) | 1 | 50.8 | active |
| TIE1 (GeneID 7075) | 2 | 49.1 | active |
| TIE1 (GeneID 7075) | 2 | 47.8 | active |
| TIE1 (GeneID 7075) | 3 | 36.2 | active |
| TIE1 (GeneID 7075) | 3 | 47.9 | active |
| H4C5 (GeneID 8367) | 1 | 55.8 | active |
| H4C5 (GeneID 8367) | 2 | 58.6 | active |
| H4C5 (GeneID 8367) | 3 | 68.6 | active |
| PDK2 (GeneID 5164) | 1 | 58.6 | active |
| PDK2 (GeneID 5164) | 2 | 44.8 | active |
| PDK2 (GeneID 5164) | 3 | 53.1 | active |
| PRPS2 (GeneID 5634) | 1 | 57.1 | active |
| PRPS2 (GeneID 5634) | 2 | 61.9 | active |
| PRPS2 (GeneID 5634) | 3 | 65.8 | active |
| DHX58 (GeneID 79132) | 1 | 56.3 | active |
| DHX58 (GeneID 79132) | 2 | 57 | active |
| DHX58 (GeneID 79132) | 3 | 54.2 | active |
| MAU2 (GeneID 23383) | 1 | 53.8 | active |
| MAU2 (GeneID 23383) | 2 | 58 | active |
| MAU2 (GeneID 23383) | 3 | 68 | active |
| ENOSF1 (GeneID 55556) | 1 | 85.4 | inactive |
| ENOSF1 (GeneID 55556) | 2 | 71.1 | active |
| ENOSF1 (GeneID 55556) | 3 | 81 | inactive |
| ABL2 (GeneID 27) | 1 | 67.5 | active |
| ABL2 (GeneID 27) | 2 | 54.5 | active |
| ABL2 (GeneID 27) | 3 | 63.9 | active |
| DDX59 (GeneID 83479) | 1 | 40.6 | active |
| DDX59 (GeneID 83479) | 2 | 40.8 | active |
| DDX59 (GeneID 83479) | 3 | 46.5 | active |
| POLR1C (GeneID 9533) | 1 | 69.8 | active |
| POLR1C (GeneID 9533) | 2 | 62.7 | active |
| POLR1C (GeneID 9533) | 3 | 61.6 | active |
| TRIM24 (GeneID 8805) | 1 | 77.6 | active |
| TRIM24 (GeneID 8805) | 1 | 28.6 | active |
| TRIM24 (GeneID 8805) | 2 | 90.3 | inactive |
| TRIM24 (GeneID 8805) | 2 | 25.3 | active |
| TRIM24 (GeneID 8805) | 3 | 89.8 | inactive |
| TRIM24 (GeneID 8805) | 3 | 23.4 | active |
| FMR1 (GeneID 2332) | 1 | 68 | active |
| FMR1 (GeneID 2332) | 2 | 71.4 | active |
| FMR1 (GeneID 2332) | 3 | 71 | active |
| MED17 (GeneID 9440) | 1 | 21.2 | active |
| MED17 (GeneID 9440) | 2 | 29.1 | active |
| MED17 (GeneID 9440) | 3 | 28.6 | active |
| SFMBT1 (GeneID 51460) | 1 | 51.4 | active |
| SFMBT1 (GeneID 51460) | 2 | 36.7 | active |
| SFMBT1 (GeneID 51460) | 3 | 49.2 | active |

10 of these entries in another layout.
{"target gene":"DDX59 (GeneID 83479)","technical replicate":"2","viability, normalised (%)":40.8,"activity call":"active"}
{"target gene":"DDX59 (GeneID 83479)","technical replicate":"3","viability, normalised (%)":46.5,"activity call":"active"}
{"target gene":"POLR1C (GeneID 9533)","technical replicate":"1","viability, normalised (%)":69.8,"activity call":"active"}
{"target gene":"POLR1C (GeneID 9533)","technical replicate":"2","viability, normalised (%)":62.7,"activity call":"active"}
{"target gene":"POLR1C (GeneID 9533)","technical replicate":"3","viability, normalised (%)":61.6,"activity call":"active"}
{"target gene":"TRIM24 (GeneID 8805)","technical replicate":"1","viability, normalised (%)":77.6,"activity call":"active"}
{"target gene":"TRIM24 (GeneID 8805)","technical replicate":"1","viability, normalised (%)":28.6,"activity call":"active"}
{"target gene":"TRIM24 (GeneID 8805)","technical replicate":"2","viability, normalised (%)":90.3,"activity call":"inactive"}
{"target gene":"TRIM24 (GeneID 8805)","technical replicate":"2","viability, normalised (%)":25.3,"activity call":"active"}
{"target gene":"TRIM24 (GeneID 8805)","technical replicate":"3","viability, normalised (%)":89.8,"activity call":"inactive"}
